Results from US20070072904A1, “PPAR active compounds” (priority 2005, published 2007).
Like-named read-outs stand apart in the source and are kept apart here. Some of these results come from one statement about several compounds together. At least one structure is not confirmed: it was looked up by name or label, or the drawing left a doubt.

Tested on: PPARα, PPARγ and PPARδ
Assay: PPAR activity assays: biochemical assay of Example 9 or cell based assay of Example 10, at least one of the PPARs
[1] = read-out: EC50 in at least one of PPARα, PPARγ and PPARδ activity assays, either biochemical assay of Example 9 or cell based assay of Example 10, at least one of the PPARs

| Structure (SMILES) | EC50 [1] [nM] | EC50 (read-out: EC50 for at least one of PPARs, compounds disclosed in PCT publication WO 2005/009958 (numbering of that application)) [nM] |
| --- | --- | --- |
| CCCCOc1ccc(S(=O)(=O)n2cc(CCC(=O)O)c3cc(OC(C)C)ccc32)cc1 [Compound P-0327, 3-[1-(4-Butoxy-benzenesulfonyl)-5-isopropoxy-1H-indol-3-yl]-propionic acid] | ≤ 1000 |  |
| CC(C)Oc1ccc2c(CCC(=O)O)cn(S(=O)(=O)c3ccc4c(c3)OCCN4C)c2c1 [Compound P-0203, 3-[6-Isopropoxy-1-(4-methyl-3,4-dihydro-2H-benzo[1,4]oxazine-7-sulfonyl)-1H-indol-3-yl]-propionic acid] | ≤ 1000 |  |
| COc1cc2c(CCC(=O)O)cn(S(=O)(=O)c3cc(C)sc3C)c2cc1OC [Compound P-0270, 3-[1-(2,5-Dimethyl-thiophene-3-sulfonyl)-5,6-dimethoxy-1H-indol-3-yl]-propionic acid] | ≤ 1000 |  |
| CCOc1ccc2c(c1)c(CCC(=O)O)cn2S(=O)(=O)c1ccc(-c2cccnc2)s1 [Compound P-0412, 3-[5-Ethoxy-1-(5-pyridin-3-yl-thiophene-2-sulfonyl)-1H-indol-3-yl]-propionic acid] | ≤ 1000 |  |
| COc1ccc2[nH]ccc2c1 [Compound 1, 5-methoxyindole] |  | ≤ 1000 |
| Cc1cc(S(=O)(=O)n2cc(CCC(=O)O)c3cc4c(cc32)OCO4)c(C)o1 [Compound P-0295, 3-[5-(2,5-Dimethyl-furan-3-sulfonyl)-5H-[1,3]dioxolo[4,5-f]indol-7-yl]-propionic acid] | ≤ 1000 |  |
| COc1ccc2c(c1)c(CCC(=O)O)cn2S(=O)(=O)c1ccc(I)cc1 [Compound P-0160, 3-[1-(4-Iodo-benzenesulfonyl)-5-methoxy-1H-indol-3-yl]-propionic acid] | ≤ 1000 |  |
| COc1ccc2c(c1)c(CCC(=O)O)cn2S(=O)(=O)c1ccc(-c2ccc(C)o2)s1 [Compound P-0501, 3-{5-Methoxy-1-[5-(5-methyl-furan-2-yl)-thiophene-2-sulfonyl]-1H-indol-3-yl}-propionic acid] | ≤ 1000 |  |
| O=C(O)CCc1cn(S(=O)(=O)c2cccc(Oc3ccc(Cl)c(Cl)c3)c2)c2cc3c(cc12)OCO3 [Compound P-0227, 3-{5-[3-(3,4-Dichloro-phenoxy)-benzenesulfonyl]-5H-[1,3]dioxolo[4,5-f]indol-7-yl}-propionic acid] | ≤ 1000 |  |
| CCOc1ccc2c(c1)c(CCC(=O)O)cn2S(=O)(=O)c1ccc(-c2ccc(C)o2)s1 [Compound P-0502, 3-{5-Ethoxy-1-[5-(5-methyl-furan-2-yl)-thiophene-2-sulfonyl]-1H-indol-3-yl}-propionic acid] | ≤ 1000 |  |
| COc1ccc2c(c1)c(CCC(=O)O)cn2S(=O)(=O)c1ccc(-c2ccc(C(F)(F)F)cc2)s1 [Compound P-0020, 3-{5-Methoxy-1-[5-(4-trifluoromethyl-phenyl)-thiophene-2-sulfonyl]-1H-indol-3-yl}-propionic acid] | ≤ 1000 |  |
| COc1ccc2c(c1)c(CCC(=O)O)cn2S(=O)(=O)c1ccc(-c2ccc(OC)nc2OC)s1 [Compound P-0462, 3-{1-[5-(2,6-Dimethoxy-pyridin-3-yl)-thiophene-2-sulfonyl]-5-methoxy-1H-indol-3-yl}-propionic acid] | ≤ 1000 |  |
| COc1ncc(-c2ccc(S(=O)(=O)n3cc(CCC(=O)O)c4cc(Cl)ccc43)s2)c(OC)n1 [Compound P-0468, 3-{5-Chloro-1-[5-(2,4-dimethoxy-pyrimidin-5-yl)-thiophene-2-sulfonyl]-1H-indol-3-yl}-propionic acid] | ≤ 1000 |  |
| CCOc1ccc2c(c1)c(CCC(=O)O)cn2S(=O)(=O)c1ccc(NC(=O)NCCOC)cc1 [Compound P-0380, 3-(5-Ethoxy-1-{4-[3-(2-methoxy-ethyl)-ureido]-benzenesulfonyl}-1H-indol-3-yl)-propionic acid] | ≤ 1000 |  |
| Cc1cc(S(=O)(=O)n2cc(CCC(=O)O)c3ccc(OC(C)C)cc32)c(C)s1 [Compound P-0210, 3-[1-(2,5-Dimethyl-thiophene-3-sulfonyl)-6-isopropoxy-1H-indol-3-yl]-propionic acid] | ≤ 1000 |  |
| COc1ccc2c(c1)c(CCC(=O)O)cn2S(=O)(=O)c1ccc(-c2cc(C(F)(F)F)on2)s1 [Compound P-0008, 3-{5-Methoxy-1-[5-(5-trifluoromethyl-isoxazol-3-yl)-thiophene-2-sulfonyl]-1H-indol-3-yl}-propionic acid] | ≤ 1000 |  |
| CC(C)Oc1ccc2c(c1)c(CCC(=O)O)cn2S(=O)(=O)c1cccnc1 [Compound P-0329, 3-[5-Isopropoxy-1-(pyridine-3-sulfonyl)-1H-indol-3-yl]-propionic acid] | ≤ 1000 |  |

Other lines, results leading:

| EC50 [1] [nM] | EC50 (read-out: EC50 for at least one of PPARs, compounds disclosed in PCT publication WO 2005/009958 (numbering of that application)) [nM] | Structure (SMILES) |
| --- | --- | --- |
| ≤ 1000 |  | COc1ccc2c(c1)c(CCC(=O)O)cn2S(=O)(=O)c1ccc(-c2cccnc2)s1 [Compound P-0411, 3-[5-Methoxy-1-(5-pyridin-3-yl-thiophene-2-sulfonyl)-1H-indol-3-yl]-propionic acid] |
| ≤ 1000 |  | O=C(O)CCc1cn(S(=O)(=O)c2ccc(-c3cccc(OC(F)(F)F)c3)s2)c2ccc(Cl)cc12 [Compound P-0482, 3-{5-Chloro-1-[5-(3-trifluoromethoxy-phenyl)-thiophene-2-sulfonyl]-1H-indol-3-yl}-propionic acid] |
| ≤ 1000 |  | CCOc1ccc2c(c1)c(CCC(=O)O)cn2S(=O)(=O)c1ccccc1-c1ccc(F)c(F)c1 [Compound P-0553, 3-[1-(3′,4′-Difluoro-biphenyl-2-sulfonyl)-5-ethoxy-1H-indol-3-yl]-propionic acid] |
| ≤ 1000 |  | COc1ccc2c(c1)c(CCC(=O)O)cn2S(=O)(=O)c1cccc(Oc2ccc(F)cc2)c1 [Compound P-0568, 3-{1-[3-(4-Fluoro-phenoxy)-benzenesulfonyl]-5-methoxy-1H-indol-3-yl}-propionic acid] |
| ≤ 1000 |  | O=C(O)CCc1cn(S(=O)(=O)c2ccc(-c3cc(C(F)(F)F)on3)s2)c2ccc(F)cc12 [Compound P-0003, 3-{5-Fluoro-1-[5-(5-trifluoromethyl-isoxazol-3-yl)-thiophene-2-sulfonyl]-1H-indol-3-yl}-propionic acid] |
| ≤ 1000 |  | O=C(O)CCc1cn(S(=O)(=O)c2ccc(-c3ccc(C(F)(F)F)cc3Cl)s2)c2ccc(Cl)cc12 [Compound P-0517, 3-{5-Chloro-1-[5-(2-chloro-4-trifluoromethyl-phenyl)-thiophene-2-sulfonyl]-1H-indol-3-yl}-propionic acid] |
| ≤ 1000 |  | CCCn1cc(-c2ccc(S(=O)(=O)n3cc(CCC(=O)O)c4cc(Cl)ccc43)s2)cn1 [Compound P-0521, 3-{5-Chloro-1-[5-(1-propyl-1H-pyrazol-4-yl)-thiophene-2-sulfonyl]-1H-indol-3-yl}-propionic acid] |
| ≤ 1000 |  | CCOc1ccc2c(c1)c(CCC(=O)O)cn2S(=O)(=O)c1ccc(F)c(Cl)c1 [Compound P-0379, 3-[1-(3-Chloro-4-fluoro-benzenesulfonyl)-5-ethoxy-1H-indol-3-yl]-propionic acid] |
| ≤ 1000 |  | CCOc1ccc2c(c1)c(CCC(=O)O)cn2S(=O)(=O)c1ccc(-c2c(C)noc2C)s1 [Compound P-0505, 3-{1-[5-(3,5-Dimethyl-isoxazol-4-yl)-thiophene-2-sulfonyl]-5-ethoxy-1H-indol-3-yl}-propionic acid] |
| ≤ 1000 |  | O=C(O)CCc1cn(S(=O)(=O)c2ccc(-c3cc(C(F)(F)F)on3)s2)c2ccc(Cl)cc12 [Compound P-0004, 3-{5-Chloro-1-[5-(5-trifluoromethyl-isoxazol-3-yl)-thiophene-2-sulfonyl]-1H-indol-3-yl}-propionic acid] |
| ≤ 1000 |  | CCCn1cc(-c2ccc(S(=O)(=O)n3cc(CCC(=O)O)c4cc(OC)ccc43)s2)cn1 [Compound P-0519, 3-{5-Methoxy-1-[5-(1-propyl-1H-pyrazol-4-yl)-thiophene-2-sulfonyl]-1H-indol-3-yl}-propionic acid] |
| ≤ 1000 |  | CCOc1ccc2c(c1)c(CCC(=O)O)cn2S(=O)(=O)c1cc(C)sc1C [Compound P-0382, 3-[1-(2,5-Dimethyl-thiophene-3-sulfonyl)-5-ethoxy-1H-indol-3-yl]-propionic acid] |
| ≤ 1000 |  | CCOc1ccc2c(c1)c(CCC(=O)O)cn2S(=O)(=O)c1ccc(-c2ccc(OCc3ccccc3)nc2)s1 [Compound P-0471, 3-{1-[5-(6-Benzyloxy-pyridin-3-yl)-thiophene-2-sulfonyl]-5-ethoxy-1H-indol-3-yl}-propionic acid] |
| ≤ 1000 |  | CCCCNC(=O)Nc1ccc(S(=O)(=O)n2cc(CCC(=O)O)c3cc(OCC)ccc32)cc1 [Compound P-0343, 3-{1-[4-(3-Butyl-ureido)-benzenesulfonyl]-5-ethoxy-1H-indol-3-yl}-propionic acid] |
| ≤ 1000 |  | CC(C)Oc1ccc2c(c1)c(CCC(=O)O)cn2S(=O)(=O)c1ccc(F)c(Cl)c1 [Compound P-0331, 3-[1-(3-Chloro-4-fluoro-benzenesulfonyl)-5-isopropoxy-1H-indol-3-yl]-propionic acid] |
| ≤ 1000 |  | CCOc1ccc2c(c1)c(CCC(=O)O)cn2S(=O)(=O)c1ccc(-c2ccc(OC)c(F)c2)s1 [Compound P-0498, 3-{5-Ethoxy-1-[5-(3-fluoro-4-methoxy-phenyl)-thiophene-2-sulfonyl]-1H-indol-3-yl}-propionic acid] |
| ≤ 1000 |  | COc1ccc(S(=O)(=O)n2cc(CCC(=O)O)c3cc(Br)ccc32)cc1 [Compound P-0032, 3-[5-Bromo-1-(4-methoxy-benzenesulfonyl)-1H-indol-3-yl]-propionic acid] |
| ≤ 1000 |  | COc1ccc2c(c1)c(CCC(=O)O)cn2S(=O)(=O)c1ccccc1C [Compound P-0219, 3-[5-Methoxy-1-(toluene-2-sulfonyl)-1H-indol-3-yl]-propionic acid] |
| ≤ 1000 |  | O=C(O)CCc1cn(S(=O)(=O)c2ccccc2OC(F)(F)F)c2cc3c(cc12)OCO3 [Compound P-0297, 3-[5-(2-Trifluoromethoxy-benzenesulfonyl)-5H-[1,3]dioxolo[4,5-f]indol-7-yl]-propionic acid] |
| ≤ 1000 |  | CCOc1ccc2c(c1)c(CCC(=O)O)cn2S(=O)(=O)c1ccccc1-c1ccc(CC)cc1 [Compound P-0537, 3-[5-Ethoxy-1-(4′-ethyl-biphenyl-2-sulfonyl)-1H-indol-3-yl]-propionic acid] |
